Our source for the binding values is paper PMC7979541.

Sequences of proteins named here, by UniProt entry; tags and fusion partners are left off.
UniProt Q07820: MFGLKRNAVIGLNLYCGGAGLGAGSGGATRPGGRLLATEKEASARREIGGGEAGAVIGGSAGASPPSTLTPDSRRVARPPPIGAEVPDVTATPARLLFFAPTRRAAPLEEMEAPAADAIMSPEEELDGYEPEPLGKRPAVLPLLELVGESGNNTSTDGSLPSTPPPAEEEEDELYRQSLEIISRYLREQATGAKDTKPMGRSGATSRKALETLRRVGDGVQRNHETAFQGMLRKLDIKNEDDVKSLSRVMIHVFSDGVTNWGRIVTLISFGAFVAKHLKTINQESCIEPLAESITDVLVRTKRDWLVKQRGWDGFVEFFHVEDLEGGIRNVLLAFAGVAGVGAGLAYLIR

These are yes or no findings as the source states them, for the method shown. In cells and extracts the contact can be indirect. Some binding calls cover weakened binding; strength is not graded here. For part of these data: Where a sequence is shown, tags or fusion partners need not be part of it.

In assay [1] the target is V5-hMcl-1 (human), Q07820. Put plainly: co-IP; HEK293T cells transfected with V5-Mcl-1, FLAG-USP13 or both; 10 µM MG132 for 6 h; immunoprecipitation with anti-FLAG or anti-V5 antibody, A/G agarose beads, 4 °C overnight; western blot. The following applies: remark: other sources report otherwise. A general note: In western blotting, separated proteins are transferred to a membrane and probed.

Assay [2] concerns the target V5-hMcl-1 (human) (UniProt Q07820). Put plainly: co-IP; HEK293T cells co-transfected with V5-Mcl-1, HA-Ubiquitin and FLAG-USP13 (C345A); MG132; V5-Mcl-1 immunoprecipitated (anti-V5 by the text, anti-Mcl-1 by the legend); western blot (Fig. 5C; Supplementary Fig. 6).
Assay [3] deals with endogenous Mcl-1 (human (endogenous in HeLa and SiHa)), Q07820. As to the kind of experiment: co-IP; endogenous proteins in HeLa and SiHa lysates after 10 µM MG132; immunoprecipitation with anti-USP13 or anti-Mcl-1 antibody; western blot. The following applies: remark: other sources report otherwise.

B1: FLAG-USP13, Q92995 1-863 (enzyme)
chain: MQRRGALFGMPGGSGGRKMAAGDIGELLVPHMPTIRVPRSGDRVYKNECAFSYDSPNSEGGLYVCMNTFLAFGREHVERHFRKTGQSVYMHLKRHVREKVRGASGGALPKRRNSKIFLDLDTDDDLNSDDYEYEDEAKLVIFPDHYEIALPNIEELPALVTIACDAVLSSKSPYRKQDPDTWENELPVSKYANNLTQLDNGVRIPPSGWKCARCDLRENLWLNLTDGSVLCGKWFFDSSGGNGHALEHYRDMGYPLAVKLGTITPDGADVYSFQEEEPVLDPHLAKHLAHFGIDMLHMHGTENGLQDNDIKLRVSEWEVIQESGTKLKPMYGPGYTGLKNLGNSCYLSSVMQAIFSIPEFQRAYVGNLPRIFDYSPLDPTQDFNTQMTKLGHGLLSGQYSKPPVKSELIEQVMKEEHKPQQNGISPRMFKAFVSKSHPEFSSNRQQDAQEFFLHLVNLVERNRIGSENPSDVFRFLVEERIQCCQTRKVRYTERVDYLMQLPVAMEAATNKDELIAYELTRREAEANRRPLPELVRAKIPFSACLQAFSEPENVDDFWSSALQAKSAGVKTSRFASFPEYLVVQIKKFTFGLDWVPKKFDVSIDMPDLLDINHLRARGLQPGEEELPDISPPIVIPDDSKDRLMNQLIDPSDIDESSVMQLAEMGFPLEACRKAVYFTGNMGAEVAFNWIIVHMEEPDFAEPLTMPGYGGAASAGASVFGASGLDNQPPEEIVAIITSMGFQRNQAIQALRATNNNLERALDWIFSHPEFEEDSDFVIEMENNANANIISEAKPEGPRVKDGSGTYELFAFISHMGTSTMSGHYICHIKKEGRWVIYNDHKVCASERPPKDLGYMYFYRRIPS
Turning to B1, the binding entry in assay [1] was “binds”.

B2: FLAG-USP13 (C345A) (enzyme, UniProt Q92995 1-863)
chain: MQRRGALFGMPGGSGGRKMAAGDIGELLVPHMPTIRVPRSGDRVYKNECAFSYDSPNSEGGLYVCMNTFLAFGREHVERHFRKTGQSVYMHLKRHVREKVRGASGGALPKRRNSKIFLDLDTDDDLNSDDYEYEDEAKLVIFPDHYEIALPNIEELPALVTIACDAVLSSKSPYRKQDPDTWENELPVSKYANNLTQLDNGVRIPPSGWKCARCDLRENLWLNLTDGSVLCGKWFFDSSGGNGHALEHYRDMGYPLAVKLGTITPDGADVYSFQEEEPVLDPHLAKHLAHFGIDMLHMHGTENGLQDNDIKLRVSEWEVIQESGTKLKPMYGPGYTGLKNLGNSAYLSSVMQAIFSIPEFQRAYVGNLPRIFDYSPLDPTQDFNTQMTKLGHGLLSGQYSKPPVKSELIEQVMKEEHKPQQNGISPRMFKAFVSKSHPEFSSNRQQDAQEFFLHLVNLVERNRIGSENPSDVFRFLVEERIQCCQTRKVRYTERVDYLMQLPVAMEAATNKDELIAYELTRREAEANRRPLPELVRAKIPFSACLQAFSEPENVDDFWSSALQAKSAGVKTSRFASFPEYLVVQIKKFTFGLDWVPKKFDVSIDMPDLLDINHLRARGLQPGEEELPDISPPIVIPDDSKDRLMNQLIDPSDIDESSVMQLAEMGFPLEACRKAVYFTGNMGAEVAFNWIIVHMEEPDFAEPLTMPGYGGAASAGASVFGASGLDNQPPEEIVAIITSMGFQRNQAIQALRATNNNLERALDWIFSHPEFEEDSDFVIEMENNANANIISEAKPEGPRVKDGSGTYELFAFISHMGTSTMSGHYICHIKKEGRWVIYNDHKVCASERPPKDLGYMYFYRRIPS
For B2, the binding result in assay [2] is given as “binds”.

B3: endogenous USP13, Q92995 1-863 (enzyme)
chain: MQRRGALFGMPGGSGGRKMAAGDIGELLVPHMPTIRVPRSGDRVYKNECAFSYDSPNSEGGLYVCMNTFLAFGREHVERHFRKTGQSVYMHLKRHVREKVRGASGGALPKRRNSKIFLDLDTDDDLNSDDYEYEDEAKLVIFPDHYEIALPNIEELPALVTIACDAVLSSKSPYRKQDPDTWENELPVSKYANNLTQLDNGVRIPPSGWKCARCDLRENLWLNLTDGSVLCGKWFFDSSGGNGHALEHYRDMGYPLAVKLGTITPDGADVYSFQEEEPVLDPHLAKHLAHFGIDMLHMHGTENGLQDNDIKLRVSEWEVIQESGTKLKPMYGPGYTGLKNLGNSCYLSSVMQAIFSIPEFQRAYVGNLPRIFDYSPLDPTQDFNTQMTKLGHGLLSGQYSKPPVKSELIEQVMKEEHKPQQNGISPRMFKAFVSKSHPEFSSNRQQDAQEFFLHLVNLVERNRIGSENPSDVFRFLVEERIQCCQTRKVRYTERVDYLMQLPVAMEAATNKDELIAYELTRREAEANRRPLPELVRAKIPFSACLQAFSEPENVDDFWSSALQAKSAGVKTSRFASFPEYLVVQIKKFTFGLDWVPKKFDVSIDMPDLLDINHLRARGLQPGEEELPDISPPIVIPDDSKDRLMNQLIDPSDIDESSVMQLAEMGFPLEACRKAVYFTGNMGAEVAFNWIIVHMEEPDFAEPLTMPGYGGAASAGASVFGASGLDNQPPEEIVAIITSMGFQRNQAIQALRATNNNLERALDWIFSHPEFEEDSDFVIEMENNANANIISEAKPEGPRVKDGSGTYELFAFISHMGTSTMSGHYICHIKKEGRWVIYNDHKVCASERPPKDLGYMYFYRRIPS
On to B3, for which, in assay [3], the binding result is given as “binds”.
